Data taken from patent publication US6593095.
No constants are given. Whether binding was seen depends on the method and setting. Some results given as binding are weak or reduced against the parent protein; the word gives no strength.

Amino acid sequences for entries named in this document (tags omitted). A change or cut given only in a name is not applied to a line headed by its entry.
UniProt P09167: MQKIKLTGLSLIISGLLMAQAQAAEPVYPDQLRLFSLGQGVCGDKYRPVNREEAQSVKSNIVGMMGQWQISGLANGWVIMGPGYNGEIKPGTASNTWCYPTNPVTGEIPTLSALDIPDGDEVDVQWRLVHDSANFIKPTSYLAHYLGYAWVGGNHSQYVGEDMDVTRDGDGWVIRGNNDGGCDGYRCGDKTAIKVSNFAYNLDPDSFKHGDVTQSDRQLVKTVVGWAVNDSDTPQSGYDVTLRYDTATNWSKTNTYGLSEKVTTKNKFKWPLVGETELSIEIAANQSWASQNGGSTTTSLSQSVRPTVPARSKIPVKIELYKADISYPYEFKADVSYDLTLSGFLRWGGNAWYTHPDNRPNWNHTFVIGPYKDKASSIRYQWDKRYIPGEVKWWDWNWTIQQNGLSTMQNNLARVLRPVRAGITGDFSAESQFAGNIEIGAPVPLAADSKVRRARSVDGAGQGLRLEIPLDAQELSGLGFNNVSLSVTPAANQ

Tests used:
[1] = molecular target: purified Thy-1 (from deoxycholate extracts of pig brain) (pig); assay: ELISA-based assay, purified Thy-1
[2] = molecular target: T1, Thy-1, native, of mouse (brain homogenate; AKR1 lymphocytes) (mouse) (UniProt P01831); assay: sandwich Western blotting of AKR1 cells
T1 sequence: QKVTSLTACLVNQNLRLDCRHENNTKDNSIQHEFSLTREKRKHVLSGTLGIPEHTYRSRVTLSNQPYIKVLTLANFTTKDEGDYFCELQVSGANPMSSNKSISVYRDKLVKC

[3] = molecular target: T2, human Thy-1 expressed in CHO-K1 cells (plasmid pRc-Thy-1) (human) (UniProt P04216); assay: sandwich Western blotting of CHO cell samples
T2 sequence: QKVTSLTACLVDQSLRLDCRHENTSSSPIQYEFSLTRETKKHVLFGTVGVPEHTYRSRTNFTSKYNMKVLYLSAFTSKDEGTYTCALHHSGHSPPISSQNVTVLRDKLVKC

[4] = molecular target: purified Thy-1 (from deoxycholate extracts of pig brain) (pig); assay: summary of ELISA and sandwich Western blotting
[5] = molecular target: T1, Thy-1, native, of mouse (brain homogenate; AKR1 lymphocytes) (mouse); assay: sandwich Western blotting of mouse brain homogenate

Measured: binding

proaerolysin (precursor form of aerolysin of Aeromonas hydrophila) (from UniProt P09167 24-481)
binds: all assays above
